From US11230581B2, “Peptides and combination of peptides for use in immunotherapy against ovarian cancer and other cancers” (Immatics Biotechnologies GmbH, priority 2015, dated 2022)

Legend:
additional tumor types = experiment: LC-MS detection and over-presentation of the peptides on additional tumor types, cell lines and primary cultures; set-up: species or system human; settings: for Other relevant organs/ cancerous diseases: Table 4A: additional tumor types on which the peptide was found, over-presented on more than 5% of measured tumor samples, or presented on more than 5% with ratio of geometric means tumor vs normal tissues larger than 3
ovarian cancer samples = experiment: Relative LC-MS quantitation of HLA-presented peptides: presentation and over-presentation on ovarian cancer vs a panel of normal tissues (presentation score); set-up: species or system human; key: +++: very highly over-presented on tumors compared to a panel of normal tissues; ++: highly over-presented on tumors compared to a panel of normal tissues; +: over-presented on tumors compared to a panel of normal tissues; settings: over-presentation on tumors compared to a panel of normal tissues
[1] = additional tumor types with over-presentation on more than 5% of the measured tumor samples, or presentation on more than 5% with ratio of geometric means tumor vs normal tissues larger than 3
[2] = amendment of Table 4: additional tumor types showing over-presentation (including specific presentation) on more than 5% of measured tumor samples, or presentation on more than 5% with ratio of geometric means tumor vs normal tissues larger than 3

Substance	Other relevant organs/ cancerous diseases (additional tumor types)	Additional organs/cancerous diseases (additional tumor types; [1])	Peptide Presentation (presentation score) (ovarian cancer samples)	Additional organs/cancerous diseases (additional tumor types; [2])
425 (FLYEKSSQV; listed as Homo sapiens) [compound 425]	Brain Cancer, Endometrium	SCLC	+	
13 (YLMDESLNL; listed as Homo sapiens) [compound 13]			+++	NSCLC, Brain Cancer, BRCA, Melanoma
307 (ALPVSLPQI; listed as Homo sapiens) [compound 307]		CLL, BRCA, Melanoma, AML, NHL, HNSCC	+	
253 (GLDAATATV; listed as Homo sapiens) [compound 253]	Prostate, Leukemia		+++	
23 (VLLDDIFAQL; listed as Homo sapiens) [compound 23]			+++	CLL, Uterine Cancer, AML
43 (VLSSLEINI; listed as Homo sapiens) [compound 43]			+	NHL
88 (FLLVGDLMAV; listed as Homo sapiens) [compound 88]	SCLC		+++	Melanoma
561 (YLQLTQSEL; listed as Homo sapiens) [compound 561]	SCLC, Leukemia, Esophageal Cancer, Gallbladder Cancer, Bile Duct Cancer	CLL, NHL, HNSCC	+++	
319 (SLEPQIQPV; listed as Homo sapiens) [compound 319]	NSCLC, CRC, Leukemia, Esophageal Cancer	HCC, CLL, BRCA, Melanoma, Gallbladder Cancer and Bile Duct Cancer, AML, HNSCC	+	
466 (VLIANLEKL; listed as Homo sapiens) [compound 466]	BrCa, Esophageal Cancer	Urinary Bladder Cancer, NHL	+++	
406 (SVQGEDLYLV; listed as Homo sapiens) [compound 406]	HCC, Endometrium		++	
410 (VLSDVIPSI; listed as Homo sapiens) [compound 410]	SCLC, RCC, Brain Cancer, GC, HCC, PC, PrC, Leukemia, Melanoma, Esophageal Cancer		++	
132 (LLVEQPPLAGV; listed as Homo sapiens) [compound 132]	Leukemia		+++	CLL, Melanoma
176 (YLMEGSYNKVFL; listed as Homo sapiens) [compound 176]	NSCLC, SCLC, CRC, HCC, Melanoma		+++	Urinary Bladder Cancer, Gallbladder Cancer and Bile Duct Cancer
226 (MLYVVPIYL; listed as Homo sapiens) [compound 226]	BrCa	SCLC, Melanoma, AML, NHL	+++	
570 (ALANQIPTV; listed as Homo sapiens) [compound 570]		HCC	+	
447 (QLVPALAKV; listed as Homo sapiens) [compound 447]	NSCLC, SCLC, HCC, PrC, Esophageal Cancer, Urinary bladder Cancer	BRCA, Melanoma, HNSCC	+++	
437 (SMAPGLVIQAV; listed as Homo sapiens) [compound 437]	SCLC, Prostate		+++	
267 (ALQDFLLSV; listed as Homo sapiens) [compound 267]	HCC, Esophageal Cancer, Endometrium	NSCLC, SCLC, CRC, BRCA, Melanoma, Urinary Bladder Cancer, AML, NHL, HNSCC	+++	
244 (SLFGGTEITI; listed as Homo sapiens) [compound 244]		Uterine Cancer	+++	
5 (HLTEVYPEL; listed as Homo sapiens) [compound 5]			+++	Urinary Bladder Cancer, Uterine Cancer

Substance	Other relevant organs/ cancerous diseases (additional tumor types)	Additional organs/cancerous diseases (additional tumor types; [1])	Peptide Presentation (presentation score) (ovarian cancer samples)	Additional organs/cancerous diseases (additional tumor types; [2])
62 (VLLDVSAGQLLM; listed as Homo sapiens) [compound 62]	NSCLC, Melanoma		+++	
288 (NLINEINGV; listed as Homo sapiens) [compound 288]	SCLC, PrC, Esophageal Cancer, Urinary bladder Cancer, Uterine Cancer		+++	
255 (VLASYNLTV; listed as Homo sapiens) [compound 255]	BrCa		+++	
463 (SLVESHLSDQLTL; listed as Homo sapiens) [compound 463]	NSCLC, SCLC, HCC, Melanoma	CLL, BRCA, Urinary Bladder Cancer, Uterine Cancer, Gallbladder Cancer and Bile Duct Cancer, NHL, HNSCC	+++	
200 (LLFGSVQEV; listed as Homo sapiens) [compound 200]	SCLC, PC, PrC, Esophageal Cancer, Gallbladder Cancer, Bile Duct Cancer		+++	
212 (ALWDQDNLSV; listed as Homo sapiens) [compound 212]	HCC, PrC, BrCa, Urinary bladder Cancer		+++	
487 (LLINSVFHV; listed as Homo sapiens) [compound 487]	Melanoma	Urinary Bladder Cancer, NHL	+	
510 (KLYSVVSQL; listed as Homo sapiens) [compound 510]	Colon, Rectum, Leukemia	NHL	+++	
292 (LLWEAGSEA; listed as Homo sapiens) [compound 292]	Brain Cancer, PC	Melanoma	+	
236 (GLLEAKVSL; listed as Homo sapiens) [compound 236]		Gallbladder Cancer and Bile Duct Cancer	+++	
338 (SVLEDPVHAV; listed as Homo sapiens) [compound 338]	NSCLC, SCLC, HCC, Melanoma	BRCA, Esophageal Cancer, Uterine Cancer, Gallbladder Cancer and Bile Duct Cancer, NHL	+	
77 (ILVEADGAWVV; listed as Homo sapiens) [compound 77]	Melanoma, Esophageal Cancer		+++	BRCA, Uterine Cancer, AML, NHL
248 (FLFPNQYVDV; listed as Homo sapiens) [compound 248]	NSCLC, SCLC, HCC, Leukemia, Melanoma	CLL, BRCA	+	
538 (LLLAHIIAL; listed as Homo sapiens) [compound 538]	NSCLC, Brain Cancer, HCC	BRCA, Urinary Bladder Cancer, Uterine Cancer	++	
401 (ILLDDTGLAYI; listed as Homo sapiens) [compound 401]	SCLC, HCC, Leukemia, BrCa, Melanoma	CLL, Urinary Bladder Cancer, Gallbladder Cancer and Bile Duct Cancer, NHL	+	
36 (YVLEDLEVTV; listed as Homo sapiens) [compound 36]	SCLC, HCC, Leukemia		+++	NSCLC, CLL, BRCA, Melanoma, Urinary Bladder Cancer, Uterine Cancer, Gallbladder Cancer and Bile Duct Cancer, NHL, HNSCC
599 (YLLNDASLISV; listed as Homo sapiens) [compound 599]	NSCLC, CRC, HCC, Melanoma, Uterine Cancer	SCLC	++	
448 (NLLETKLQL; listed as Homo sapiens) [compound 448]	Colon, Rectum, Leukemia	CLL, Melanoma, NHL, HNSCC	++	
187 (RQISIRGIVGV; listed as Homo sapiens) [compound 187]		NSCLC, Urinary Bladder Cancer, Uterine Cancer, AML, HNSCC	+++	
444 (GLLRDEALAEV; listed as Homo sapiens) [compound 444]	NSCLC, SCLC, CRC, Melanoma, Esophageal Cancer	CLL, BRCA, Urinary Bladder Cancer, Uterine Cancer, AML, NHL, HNSCC	+++	
418 (ALAELENIEV; listed as Homo sapiens) [compound 418]	SCLC, MCC	CLL, BRCA, Urinary Bladder Cancer, Gallbladder Cancer and Bile Duct Cancer, HNSCC	+	
